Measured values reported in paper PMC4865918.
Results are given in words; binding and its absence hold for the method and conditions named. For some assays here: Binding seen in cells or lysates may run through a third protein. Some results given as binding are weak or reduced against the parent protein; the word gives no strength. Sequences can lack the tags named with a protein. Blank lines part the entries; values can stand above or below the binder they belong to.

Columns and labels:
GST-PRL-2 (human) = molecular target: T1, GST-PRL-2 (human) (UniProt Q12974); assay: pull-down; HeLa cells transiently co-transfected with GST-PRL-2 and full-length CNNM3 or mutants; GST pulldown on cell extracts, Western blot with v5 or GST antibodies
T1 sequence: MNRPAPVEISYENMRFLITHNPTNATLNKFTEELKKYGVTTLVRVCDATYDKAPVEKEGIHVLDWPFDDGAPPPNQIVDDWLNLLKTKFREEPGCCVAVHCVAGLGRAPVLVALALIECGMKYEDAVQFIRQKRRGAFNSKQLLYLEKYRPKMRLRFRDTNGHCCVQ

[1] = molecular target: GST-CBS (Bateman module of human CNNM3, amino acids 302-452) (human) (UniProt Q8NE01); assay: condition: only with thienopyridone (various concentrations); pull-down; in vitro; as the control, but His-PRL-2 incubated 20 min at 4 °C with various concentrations of thienopyridone before it was added to GST-CBS-bound beads; both purified

- binding (GST-PRL-2 (human)): binds
B1: full-length CNNM3 (CNNM3 WT-v5) (protein, UniProt Q8NE01 1-707)
chain: MAAAVAAAGRLGWLFAALCLGNAAGEAAPGPRVLGFCLEEDGAAGAGWVRGGAARDTPDATFLLRLFGPGFANSSWSWVAPEGAGCREEAASPAGEWRALLRLRLRAEAVRPHSALLAVRVEPGGGAAEEAAPPWALGLGAAGLLALAALARGLQLSALALAPAEVQVLRESGSEAERAAARRLEPARRWAGCALGALLLLASLAQAALAVLLYRAAGQRAVPAVLGSAGLVFLVGEVVPAAVSGRWTLALAPRALGLSRLAVLLTLPVALPVGQLLELAARPGRLRERVLELARGGGDPYSDLSKGVLRCRTVEDVLTPLEDCFMLDASTVLDFGVLASIMQSGHTRIPVYEEERSNIVDMLYLKDLAFVDPEDCTPLSTITRFYNHPLHFVFNDTKLDAVLEEFKRGKSHLAIVQKVNNEGEGDPFYEVLGLVTLEDVIEEIIRSEILDESEDYRDTVVKRKPASLMAPLKRKEEFSLFKVSDDEYKVTISPQLLLATQRFLSREVDVFSPLRISEKVLLHLLKHPSVNQEVRFDESNRLATHHYLYQRSQPVDYFILILQGRVEVEIGKEGLKFENGAFTYYGVSALTVPSSVHQSPVSSLQPIRHDLQPDPGDGTHSSAYCPDYTVRALSDLQLIKVTRLQYLNALLATRAQNLPQSPENTDLQVIPGSQTRLLGEKTTTAAGSSHSRPGVPVEGSPGRNPGV

- binding [1]: no binding
B2: His-PRL-2 (enzyme, UniProt Q12974 1-167)
chain: T1 sequence
